In all, about 300,000 compounds went through this assay and about 5,400 (1.8%) were called active. Inconclusive results, whose numbers are uncertain, are shown with a selection of clear calls. The call rests on the fitted dose curve; tested in HEK293 cells. Where the call is inconclusive, the potency comes from a doubtful curve fit. More than one record can exist for a structure, and the calls need not agree.
assay: qHTS for inhibitors of binding or entry into cells for Marburg Virus; details: Marburg virus pseudotyped entry inhibition, cell reporter; activity change, negative = inhibition: at 37.8 µM (top of the series) unless noted
On the % scale 0 is the no-effect control and ±100 the full control effect; potency means the concentration at half of the fitted maximal effect.

| Structure (SMILES) | activity change, negative = inhibition | Potency |
| --- | --- | --- |
| O=C(CN1C(=O)NC(c2ccccc2)(c2ccccc2)C1=O)NCC(=O)Nc1ccc(F)cc1 | inactive: 5.19% |  |
| Cc1ccc(C)c(S(=O)(=O)c2cnc(SCC(=O)Nc3ccc(F)cc3F)[nH]c2=O)c1 |  | inconclusive: 17.8 µM [activator, single point] |
| Cc1sc2nc(CN(Cc3cccs3)C(=O)NC3CCCCC3)[nH]c(=O)c2c1C |  | inconclusive: 0.447 µM [inhibitor, full curve, poor fit] |
| CN1CCc2c(c3c(n2C)CCN(C)C3c2ccc(F)cc2)C1c1ccc(F)cc1 (stereo unspecified) | inactive: -14.3% |  |
| Cc1ccccc1OCC(=O)Nc1nc2ccccc2[nH]1 |  | inconclusive: 35.5 µM [activator, single point] |
| CCCNC(=O)N1C2=NC(C(=O)OC)=C(C(=O)OC)[C@@H]3N(C)c4ccc(OC)cc4[C@]23C[C@H]1C(=O)OC |  | inconclusive: 2.66 µM [inhibitor, single point] |
| C=C(C)COc1ccc(-c2ncnc(C(F)(F)F)c2-c2ccc(OC)cc2)c(O)c1 |  | inconclusive: 35.5 µM [inhibitor, single point] |
| COc1ccc(NCc2cccnc2)cc1 | inactive: -1.27% [at 46.1 µM] |  |
| CCS(=O)(=O)c1ncc(N(Cc2ccco2)Cc2sccc2C)c(C(=O)Nc2ccc(C)cc2C)n1 |  | inconclusive: 3.55 µM [inhibitor, partial curve] |
| COCCOC(=O)/C=C1/NC(=O)CS1 | inactive: 8.59% |  |
| COc1ccc(OCC(=O)Nc2ccccc2OC(F)F)cc1 | inactive: 0.127% |  |
| Cc1ccc(S(=O)(=O)N(CCCc2c(C)nc[nH]c2=O)c2ccccc2)cc1 |  | inconclusive: 1.41 µM [activator, partial curve, poor fit] |
| CN1CC(c2ccccc2Cl)C2(COc3ccccc3C2=O)C12C(=O)Nc1ccccc12 (stereo unspecified) |  | inconclusive: 29.1 µM [inhibitor, single point] |
| CC(C)CN1C(=O)/C(=C/c2cccs2)NC1=S |  | inconclusive: 20.6 µM [activator, single point] |
| Nc1nc(Nc2ccc(Cl)cc2)nc(NCc2ccco2)c1[N+](=O)[O-] |  | inconclusive: 1.12 µM [activator, partial curve, poor fit] |
| c1ccc(-c2nccc(-c3ccc(-n4cnc5ccccc54)cc3)n2)cc1 | inactive: -23.9% |  |
| CCN(CC)S(=O)(=O)c1ccc(C)c(NC(=O)CSc2nnnn2C)c1 |  | inconclusive: 35.5 µM [inhibitor, single point] |
| CC(=O)Nc1ccc(NC(=O)COc2ccc(-c3ccc(C#N)cc3)cc2)cc1 |  | inconclusive: 0.112 µM [activator, full curve, poor fit] |
| CCNC(=S)Nc1cc(OCC)c(NC(=O)c2ccco2)cc1OCC | inactive: -3.18% |  |
| Cc1cc(C)cc(N(CC(=O)NCCSc2ccccn2)S(=O)(=O)c2ccccc2)c1 |  | inconclusive: 22.4 µM [inhibitor, single point] |
| COc1ccc(C(=O)N(CCc2ccccc2)Cc2cccs2)c(OC)c1 |  | inconclusive: 11.2 µM [inhibitor, partial curve, poor fit] |
| CC(=O)c1c(C)[nH]c(C(=O)Nc2nc(-c3ccc(-c4ccccc4)cc3)cs2)c1C |  | inconclusive: 8.91 µM [inhibitor, partial curve, poor fit] |

| Structure (SMILES) | activity change, negative = inhibition | Potency |
| --- | --- | --- |
| CCOC(=O)c1sc(C)c2c(=O)n(CCCN3CCOCC3)cnc12 | inactive: 1.97% |  |
| NC(=O)c1cc2ccccc2o/c1=N/NC(=O)c1cccc(F)c1 | inactive: -5.08% [at 46.1 µM] |  |
| Cc1ccc(N2C(=O)N(CC(=O)NCc3ccccc3Cl)C(=O)C2C)cc1 (stereo unspecified) |  | inconclusive: 10 µM [inhibitor, partial curve, poor fit] |
| Cc1ccc(C)c(NS(=O)(=O)c2cc(C(=O)Nc3ccccc3-c3ccccc3)ccc2Cl)c1 |  | inconclusive: 16.4 µM [inhibitor, single point] |
| CC(=O)/C(=N\Nc1ccc(C)cc1)N1CCOCC1 |  | inconclusive: 11.2 µM [activator, single point] |
| O=C(c1ccco1)N1CCN(c2ncnc3c2[nH]c2ccc(Br)cc23)CC1 |  | inconclusive: 28.2 µM [inhibitor, single point] |
| CCn1c(COc2ccc(Cl)cc2)nnc1SC1CCc2ccccc2C1=O (stereo unspecified) |  | inconclusive: 0.447 µM [inhibitor, full curve, poor fit] |
| COC(=O)CCC(=O)Nc1ccccc1C(=O)Nc1ccccc1 |  | inconclusive: 17.8 µM [activator, partial curve, poor fit] |
| CCC12CN3CC(C)(CN(C1)C3c1c[nH]c3ccccc13)C2=O (stereo unspecified) | inactive: 6.4% [at 46.1 µM] |  |
| COc1cc(C(=O)OCC(=O)N2c3ccccc3NC(=O)C2(C)C)ccc1OCC(C)C |  | inconclusive: 8.91 µM [inhibitor, partial curve, poor fit] |
| Cc1cc(NCC2CCCO2)n2c(nc3ccccc32)c1C#N (stereo unspecified) | inactive: 1.22% [at 46.1 µM] |  |
| Cc1ccc(C(=O)OCC(=O)N2C(C)CCCC2C)s1 (stereo unspecified) |  | inconclusive: 0.355 µM [activator, full curve] |
| Cc1ccc(CN2CCCC(C(=O)N3CCCC3)C2)cc1 (stereo unspecified) |  | inconclusive: 2.24 µM [inhibitor, partial curve, poor fit] |
| Cn1c(=O)n(C)c2cc([N+](=O)[O-])c(N3CCN(S(=O)(=O)c4ccc(C(C)(C)C)cc4)CC3)cc21 |  | inconclusive: 18.3 µM [inhibitor, partial curve, poor fit] |
| Nc1ccc(N2CCCCC2)c(S(=O)(=O)Nc2ccccc2Cl)c1 |  | inconclusive: 12.6 µM [inhibitor, partial curve, poor fit] |
| COc1ccc(C)cc1NC(=O)CN(c1ccccc1)S(=O)(=O)N(C)C |  | inconclusive: 2.51 µM [inhibitor, partial curve, poor fit] |
| CSc1ccc(CN(C)CC(=O)Nc2ccc(C)cc2Br)cc1 |  | inconclusive: 1.26 µM [inhibitor, single point] |
| O=C(C1CCN(Cc2ccc(F)cc2)CC1)N(CCc1ccccc1)Cc1ccccc1 |  | inconclusive: 9.2 µM [inhibitor, partial curve, poor fit] |
| C/C(=N\NC(=O)c1ccc(NS(=O)(=O)c2cccs2)cc1)c1ccncc1 | inactive: 4.19% [at 46.1 µM] |  |
| O=C(CN1CCN(C(=O)c2ccc(-c3nc4ccccc4s3)o2)CC1)Nc1ccccc1Cl |  | inconclusive: 35.5 µM [inhibitor, single point] |
| CCC(c1nnnn1Cc1ccc2c(c1)OCO2)N1CCN(CC)CC1 (stereo unspecified) | inactive: 2.37% [at 46.1 µM] |  |
| COc1ccccc1/C=C/C(=O)OCc1nc2ccccc2c(=O)[nH]1 | inactive: 16.2% [at 46.1 µM] |  |

A draw from above in order of number of heavy atoms, rising.

| Structure (SMILES) | activity change, negative = inhibition | Potency |
| --- | --- | --- |
| COc1ccc(NCc2cccnc2)cc1 | inactive: -1.27% [at 46.1 µM] |  |
| CC(C)CN1C(=O)/C(=C/c2cccs2)NC1=S |  | inconclusive: 20.6 µM [activator, single point] |
| Cc1ccc(C(=O)OCC(=O)N2C(C)CCCC2C)s1 (stereo unspecified) |  | inconclusive: 0.355 µM [activator, full curve] |
| Cc1ccccc1OCC(=O)Nc1nc2ccccc2[nH]1 |  | inconclusive: 35.5 µM [activator, single point] |
| Cc1cc(NCC2CCCO2)n2c(nc3ccccc32)c1C#N (stereo unspecified) | inactive: 1.22% [at 46.1 µM] |  |
| NC(=O)c1cc2ccccc2o/c1=N/NC(=O)c1cccc(F)c1 | inactive: -5.08% [at 46.1 µM] |  |
| COc1ccccc1/C=C/C(=O)OCc1nc2ccccc2c(=O)[nH]1 | inactive: 16.2% [at 46.1 µM] |  |
| CCN(CC)S(=O)(=O)c1ccc(C)c(NC(=O)CSc2nnnn2C)c1 |  | inconclusive: 35.5 µM [inhibitor, single point] |
| c1ccc(-c2nccc(-c3ccc(-n4cnc5ccccc54)cc3)n2)cc1 | inactive: -23.9% |  |
| Cc1sc2nc(CN(Cc3cccs3)C(=O)NC3CCCCC3)[nH]c(=O)c2c1C |  | inconclusive: 0.447 µM [inhibitor, full curve, poor fit] |
| C=C(C)COc1ccc(-c2ncnc(C(F)(F)F)c2-c2ccc(OC)cc2)c(O)c1 |  | inconclusive: 35.5 µM [inhibitor, single point] |
| Cc1cc(C)cc(N(CC(=O)NCCSc2ccccn2)S(=O)(=O)c2ccccc2)c1 |  | inconclusive: 22.4 µM [inhibitor, single point] |
| COc1cc(C(=O)OCC(=O)N2c3ccccc3NC(=O)C2(C)C)ccc1OCC(C)C |  | inconclusive: 8.91 µM [inhibitor, partial curve, poor fit] |
| O=C(CN1CCN(C(=O)c2ccc(-c3nc4ccccc4s3)o2)CC1)Nc1ccccc1Cl |  | inconclusive: 35.5 µM [inhibitor, single point] |
| Cc1ccc(C)c(NS(=O)(=O)c2cc(C(=O)Nc3ccccc3-c3ccccc3)ccc2Cl)c1 |  | inconclusive: 16.4 µM [inhibitor, single point] |
| CCS(=O)(=O)c1ncc(N(Cc2ccco2)Cc2sccc2C)c(C(=O)Nc2ccc(C)cc2C)n1 |  | inconclusive: 3.55 µM [inhibitor, partial curve] |

Further structures.

| Structure (SMILES) | activity change, negative = inhibition | Potency |
| --- | --- | --- |
| CCCc1cc(-c2[nH]ncc2-c2ccc3c(c2)OCCCO3)c(O)cc1O |  | active: 14.6 µM |
| CCOc1ccc(NC(=O)NCCCn2c(C)nc3cc(C)c(C)cc32)cc1 |  | inconclusive: 7.3 µM [activator, partial curve, poor fit] |
| CCC(C)Oc1cccc(OCCCCN2C(=O)NC(C)(C)C2=O)c1 (stereo unspecified) |  | inconclusive: 29.1 µM [inhibitor, single point] |
| COc1ccc(CNS(=O)(=O)c2ccc3c(c2)N(C(C)=O)CC(C)S3)cc1 (stereo unspecified) |  | inconclusive: 4.47 µM [inhibitor, full curve, poor fit] |
| O=C(CSc1nnc(-c2cccnc2)n1CCN1CCCCC1)Nc1cccc(Cl)c1 |  | inconclusive: 12.6 µM [activator, partial curve, poor fit] |
| CCOc1ccc(C(=O)/C=C/c2ccc(SC)cc2)cc1 | inactive: -11.3% |  |
| Cc1cc(C)nc(NS(=O)(=O)c2ccc(N=Cc3c(C)[nH]n(-c4ccccc4)c3=O)cc2)n1 |  | inconclusive: 1.58 µM [activator, partial curve] |
| COc1ccc(/C=C2\CC/C(=C\c3ccc(OC)c(OC)c3)C2=O)cc1OC |  | inconclusive: 12.6 µM [inhibitor, partial curve] |
| CN(C)S(=O)(=O)N1CCC(c2ccc(F)cc2)C(COc2ccc3c(c2)OCO3)C1 (stereo unspecified) |  | active: 2.82 µM |
| CC(C)c1nnc(NC(=O)CCS(=O)(=O)c2nc(-c3cccs3)cc(C(F)(F)F)n2)s1 |  | active: 13 µM |
| COc1ccc(S(=O)(=O)N2CCC(C(=O)N3CCC(C(N)=O)CC3)CC2)cc1Cl | inactive: -13.2% [at 46.1 µM] |  |
| CSc1sccc1/C=C(/C#N)C(=O)c1ccco1 |  | inconclusive: 35.5 µM [inhibitor, single point] |
| COc1ccc(-c2cc(C(F)(F)F)nc(SCC(=O)NCc3ccc(OC)c(OC)c3)n2)cc1 | inactive: 3.76% [at 46.1 µM] |  |
| COC(=O)c1ccccc1NC(=O)c1ccc2c(c1)OCCCO2 | inactive: 7.83% [at 46.1 µM] |  |
| COc1ccc2c(c1)cc1c(=O)n(CC(=O)NCc3ccco3)nc(C)n12 |  | inconclusive: 3.55 µM [inhibitor, partial curve, poor fit] |
| Cn1c2ccccc2c2c(C(=O)N3CCN(c4ccc(F)cc4)CC3)cn(C3CCCC3)c(=O)c21 |  | active: 17.8 µM |
| COc1ccccc1NC(=O)Cc1nn(C)c(=O)c2ccccc12 |  | inconclusive: 0.461 µM [inhibitor, full curve, poor fit] |
| CCCc1nnc(SCC(=O)N(CC)CC)n1CC1CCCO1 (stereo unspecified) |  | inconclusive: 1.78 µM [activator, single point] |
| CCCCC12CN3CCN(CC(C3)/C1=N\NC(=O)c1ccccc1N)C2 |  | inconclusive: 6.31 µM [inhibitor, single point] |
| CCCCOc1ccc(-c2[nH]ncc2C=O)cc1 |  | inconclusive: 4.47 µM [activator, full curve, poor fit] |
| CCc1nc(SCC(=O)c2ccc(Cl)s2)c2oc3ccccc3c2n1 |  | inconclusive: 7.3 µM [activator, partial curve] |
| Cc1ccc(OCCOCCN2CCCCC2)c([N+](=O)[O-])c1 |  | inconclusive: 7.94 µM [inhibitor, partial curve, poor fit] |

Source: PubChem BioAssay AID540276 (National Center for Advancing Translational Sciences (NCATS), 2011)
